PMC4586916
These are yes or no findings as the source states them, for the method shown. In cells and extracts the contact can be indirect. A yes stands for co-enrichment or nearness to the bait. Other partners may have been found.

Protein sequences, listed by entry. Tags and fused reporters are not part of them. Lines headed by an entry give the natural chain unless they say otherwise; changes in a name come on top. Chains listed by the source or under a name are the forms on record and can include a tag or linker. Residues count along the entry.
UniProt Q9UPP1, residues 37-1060: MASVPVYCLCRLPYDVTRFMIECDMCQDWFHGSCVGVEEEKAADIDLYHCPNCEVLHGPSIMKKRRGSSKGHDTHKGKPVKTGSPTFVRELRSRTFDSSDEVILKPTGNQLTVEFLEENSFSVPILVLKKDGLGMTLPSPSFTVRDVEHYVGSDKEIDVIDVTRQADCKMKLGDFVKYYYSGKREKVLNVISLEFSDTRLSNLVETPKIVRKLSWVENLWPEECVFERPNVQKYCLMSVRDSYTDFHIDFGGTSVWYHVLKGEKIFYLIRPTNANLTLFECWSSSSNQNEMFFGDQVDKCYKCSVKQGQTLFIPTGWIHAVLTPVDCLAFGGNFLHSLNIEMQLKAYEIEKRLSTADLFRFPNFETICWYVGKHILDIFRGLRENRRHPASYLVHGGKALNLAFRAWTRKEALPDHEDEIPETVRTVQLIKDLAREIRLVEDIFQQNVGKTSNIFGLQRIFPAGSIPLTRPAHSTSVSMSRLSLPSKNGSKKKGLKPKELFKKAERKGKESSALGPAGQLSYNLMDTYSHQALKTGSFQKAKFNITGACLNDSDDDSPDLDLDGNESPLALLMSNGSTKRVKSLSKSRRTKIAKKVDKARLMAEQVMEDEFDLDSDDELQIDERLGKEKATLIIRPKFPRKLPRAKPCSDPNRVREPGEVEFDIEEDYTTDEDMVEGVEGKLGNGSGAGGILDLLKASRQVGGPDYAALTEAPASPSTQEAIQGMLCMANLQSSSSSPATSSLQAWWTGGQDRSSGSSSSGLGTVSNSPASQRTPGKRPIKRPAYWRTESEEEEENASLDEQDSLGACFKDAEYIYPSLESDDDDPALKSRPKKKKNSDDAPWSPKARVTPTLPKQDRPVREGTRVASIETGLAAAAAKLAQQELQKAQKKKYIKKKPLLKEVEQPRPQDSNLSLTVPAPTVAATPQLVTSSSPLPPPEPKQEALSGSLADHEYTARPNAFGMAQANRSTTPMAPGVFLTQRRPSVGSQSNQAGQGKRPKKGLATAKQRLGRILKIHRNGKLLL
TIP60−YFP (Q92993, form named): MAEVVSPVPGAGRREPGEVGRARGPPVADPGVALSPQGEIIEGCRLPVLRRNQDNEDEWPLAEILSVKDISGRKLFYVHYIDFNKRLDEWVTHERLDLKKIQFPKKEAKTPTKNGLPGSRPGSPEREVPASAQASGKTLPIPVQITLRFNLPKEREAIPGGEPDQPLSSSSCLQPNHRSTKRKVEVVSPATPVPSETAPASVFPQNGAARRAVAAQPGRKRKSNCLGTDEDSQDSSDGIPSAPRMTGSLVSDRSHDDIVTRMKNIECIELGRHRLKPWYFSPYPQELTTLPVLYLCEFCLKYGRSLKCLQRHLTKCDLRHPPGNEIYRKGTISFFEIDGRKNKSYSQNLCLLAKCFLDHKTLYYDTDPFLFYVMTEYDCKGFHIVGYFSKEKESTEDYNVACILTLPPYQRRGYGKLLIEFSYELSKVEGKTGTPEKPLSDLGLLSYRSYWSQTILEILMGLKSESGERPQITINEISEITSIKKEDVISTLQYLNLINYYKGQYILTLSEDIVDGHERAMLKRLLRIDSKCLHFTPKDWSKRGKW
UniProt Q92841: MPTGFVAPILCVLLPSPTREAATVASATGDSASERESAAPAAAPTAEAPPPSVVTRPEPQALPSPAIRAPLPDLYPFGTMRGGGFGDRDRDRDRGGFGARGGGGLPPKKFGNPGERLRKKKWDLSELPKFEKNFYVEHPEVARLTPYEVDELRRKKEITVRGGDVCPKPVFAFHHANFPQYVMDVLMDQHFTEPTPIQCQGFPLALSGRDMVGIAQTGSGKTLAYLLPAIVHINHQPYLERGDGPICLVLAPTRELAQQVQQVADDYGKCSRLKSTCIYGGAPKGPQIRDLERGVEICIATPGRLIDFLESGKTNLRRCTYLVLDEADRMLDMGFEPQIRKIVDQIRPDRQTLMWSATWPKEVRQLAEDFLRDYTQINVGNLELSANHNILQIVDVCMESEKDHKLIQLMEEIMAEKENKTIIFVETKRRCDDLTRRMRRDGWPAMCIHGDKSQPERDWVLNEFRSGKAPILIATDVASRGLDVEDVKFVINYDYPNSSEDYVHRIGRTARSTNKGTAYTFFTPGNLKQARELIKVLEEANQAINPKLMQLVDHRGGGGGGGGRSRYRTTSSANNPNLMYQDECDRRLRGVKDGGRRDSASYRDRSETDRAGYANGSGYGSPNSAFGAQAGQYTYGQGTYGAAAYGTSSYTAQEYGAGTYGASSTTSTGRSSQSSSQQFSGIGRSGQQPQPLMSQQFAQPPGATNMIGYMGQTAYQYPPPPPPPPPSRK
UniProt O00571: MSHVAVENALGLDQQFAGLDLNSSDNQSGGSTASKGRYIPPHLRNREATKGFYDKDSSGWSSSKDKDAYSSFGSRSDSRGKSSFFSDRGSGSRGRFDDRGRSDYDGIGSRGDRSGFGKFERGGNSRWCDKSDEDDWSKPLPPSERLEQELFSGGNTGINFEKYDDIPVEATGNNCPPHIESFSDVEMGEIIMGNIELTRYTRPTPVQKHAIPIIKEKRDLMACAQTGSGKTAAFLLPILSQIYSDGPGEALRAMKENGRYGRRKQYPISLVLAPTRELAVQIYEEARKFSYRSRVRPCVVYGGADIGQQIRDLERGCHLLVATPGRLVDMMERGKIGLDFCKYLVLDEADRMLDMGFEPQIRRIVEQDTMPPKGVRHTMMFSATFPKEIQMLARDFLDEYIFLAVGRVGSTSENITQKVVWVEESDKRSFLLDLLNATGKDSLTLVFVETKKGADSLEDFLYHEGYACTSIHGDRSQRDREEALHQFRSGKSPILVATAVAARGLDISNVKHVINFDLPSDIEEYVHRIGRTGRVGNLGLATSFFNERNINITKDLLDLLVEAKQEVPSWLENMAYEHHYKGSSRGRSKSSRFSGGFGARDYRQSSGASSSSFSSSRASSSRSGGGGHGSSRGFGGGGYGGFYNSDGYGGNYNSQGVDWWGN
UniProt Q9NR30: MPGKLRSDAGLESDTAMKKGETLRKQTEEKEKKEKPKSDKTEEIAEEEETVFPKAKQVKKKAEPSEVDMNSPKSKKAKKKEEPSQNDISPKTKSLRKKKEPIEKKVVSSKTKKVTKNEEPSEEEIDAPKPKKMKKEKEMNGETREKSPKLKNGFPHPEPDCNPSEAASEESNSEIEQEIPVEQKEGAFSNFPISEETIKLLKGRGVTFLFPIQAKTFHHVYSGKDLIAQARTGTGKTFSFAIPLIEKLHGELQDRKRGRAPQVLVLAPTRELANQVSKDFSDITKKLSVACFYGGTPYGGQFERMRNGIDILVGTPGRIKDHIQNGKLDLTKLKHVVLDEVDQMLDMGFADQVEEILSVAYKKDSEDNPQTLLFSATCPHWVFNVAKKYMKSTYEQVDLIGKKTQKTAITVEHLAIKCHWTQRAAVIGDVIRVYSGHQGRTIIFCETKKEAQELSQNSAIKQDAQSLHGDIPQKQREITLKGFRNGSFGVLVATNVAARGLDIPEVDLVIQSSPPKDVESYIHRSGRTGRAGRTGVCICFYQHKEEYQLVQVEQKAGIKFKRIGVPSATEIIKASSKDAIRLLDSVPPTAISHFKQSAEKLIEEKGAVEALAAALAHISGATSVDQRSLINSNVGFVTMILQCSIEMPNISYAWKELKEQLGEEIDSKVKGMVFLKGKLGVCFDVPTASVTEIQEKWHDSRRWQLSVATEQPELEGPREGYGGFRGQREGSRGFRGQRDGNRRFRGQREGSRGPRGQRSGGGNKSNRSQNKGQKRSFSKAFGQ

B1: NONO (non-POU domain containing, octamer-binding) (protein, UniProt Q15233 1-471)
chain: MQSNKTFNLEKQNHTPRKHHQHHHQQQHHQQQQQQPPPPPIPANGQQASSQNEGLTIDLKNFRKPGEKTFTQRSRLFVGNLPPDITEEEMRKLFEKYGKAGEVFIHKDKGFGFIRLETRTLAEIAKVELDNMPLRGKQLRVRFACHSASLTVRNLPQYVSNELLEEAFSVFGQVERAVVIVDDRGRPSGKGIVEFSGKPAARKALDRCSEGSFLLTTFPRPVTVEPMDQLDDEEGLPEKLVIKNQQFHKEREQPPRFAQPGSFEYEYAMRWKALIEMEKQQQDQVDRNIKEAREKLEMEMEAARHEHQVMLMRQDLMRRQEELRRMEELHNQEVQKRKQLELRQEEERRRREEEMRRQQEEMMRRQQEGFKGTFPDAREQEIRMGQMAMGGAMGINNRGAMPPAPVPAGTPAPPGPATMMPDGTLGLTPPTTERFGQAATMEGIGAIGGTPPAFNRAAPGAEFAPNKRRRY

What was measured:
[1] = target: PHF8−YFP (human) (UniProt Q9UPP1); test: affinity purification with mass spectrometry; anti-GFP immunoprecipitation of nuclear extracts from Hek293T cells transfected with PHF8−YFP or TIP60−YFP, pre-cleared with rabbit IgG; gel bands present in the PHF8/TIP60 IP but not in the control YFP IP were excised; nanoLC-MS/MS, IPI human database
[2] = target: TIP60−YFP (UniProt Q92993); test: as above

Row | Molecule | binding [1] | binding [2]
1 | ATP-dependent RNA helicase DDX17 (from UniProt Q92841 1-729) | binds | binds
2 | ATP-dependent RNA helicase DDX3X (from UniProt O00571 1-662) | binds | binds
3 | ATP-dependent RNA helicase DDX21 (from UniProt Q9NR30 1-783) | binds | binds
4 | B1 | binds | binds
